This note sets out measurements from paper PMC7819943, “Rice protein-binding microarrays: a tool to detect cis-acting elements near promoter regions in rice”.

Sequences of proteins named here, by UniProt entry; tags and fusion partners are left off.
UniProt Q0JBA9, entry or part of it: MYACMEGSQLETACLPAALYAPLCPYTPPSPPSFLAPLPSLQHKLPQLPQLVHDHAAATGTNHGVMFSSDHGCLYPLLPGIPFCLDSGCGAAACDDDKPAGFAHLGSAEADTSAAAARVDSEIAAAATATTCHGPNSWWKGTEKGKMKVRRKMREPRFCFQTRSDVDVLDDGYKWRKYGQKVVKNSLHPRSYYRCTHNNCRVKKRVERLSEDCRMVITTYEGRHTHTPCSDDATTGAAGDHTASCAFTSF

The other results are listed elsewhere or left out.

For the experiment, the target named is OsWRKY34 (Oryza sativa, UniProt Q0JBA9 1-250). Description: protein-binding microarray (RPBM); PBS, 2% BSA, 51.3 ng/ul salmon testes DNA, 50 uM zinc acetate, 200 nM TF, 25 C, 1 h; high values mean tight binding. The conditions noted are these: protein: recombinant; tags: N-terminal polyhistidine and DsRed monomer fusion (pET32a); label: CyDye5-dUTP incorporated in the synthesized complementary strand; 3' TTTTT single-stranded linker to array surface; dsDNA, one strand shown. Summed up: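 In PBS with 2% BSA, salmon testes DNA and 50 µM zinc acetate, 200 nM protein was incubated on a custom Agilent array at 25 °C for 1 h and then washed off. The array had been made double-stranded by primer extension with Cy5-dUTP and blocked with 2% BSA. The proteins were transcription factors fused N-terminally to polyhistidine and DsRed, expressed in E. coli BL21-CodonPlus and purified on Ni–NTA. The binding signal is per-feature fluorescence intensity (arbitrary units) from an Axon 4000B scanner.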
For “CTTGTATCTTGAGCATCATTTGTGTTTTCAGGTTTCTCTTCGGAGTCACCTAGTGCAG”, the binding signal is 8100 fluorescence intensity (a.u.).

Regarding “TCGTGTTCGTGTTGGTTCCTACCTCTCCAAGTCTCTACAACGGAGTCACCTAGTGCAG”, the binding signal is 11000 fluorescence intensity (a.u.).

On to “GAGCACCAACACTCACGCATTCCTTCCTACTCCGCGAGATCGGAGTCACCTAGTGCAG”, for which the binding signal is 8720 fluorescence intensity (a.u.).

For the sequence “GGTCTCTTGCTTCTTACAATTTACCACTGGTTTTAGATTTCGGAGTCACCTAGTGCAG”, the binding signal is 10300 fluorescence intensity (a.u.).

For the sequence “TGCTCCCGTCCCGCGCGCGCGCCCATCTCCCCGCCTATAACGGAGTCACCTAGTGCAG”, the binding signal was 8250 fluorescence intensity (a.u.).

Regarding “TCCCTTCCCTGTTCCTGGCGACGTGTCACCTTCTTATTCGCGGAGTCACCTAGTGCAG”, the binding signal was 8050 fluorescence intensity (a.u.).

Take “TATATAACACAAAATAAGATCAACGTTGACCCGGGTTGACCGGAGTCACCTAGTGCAG”: the binding signal was 10200 fluorescence intensity (a.u.).

Take “ATTGTTATATTTTGCGACGGAGCGAGTACCTTGTAACTAACGGAGTCACCTAGTGCAG”: the binding signal was 8050 fluorescence intensity (a.u.).

For the sequence “ATTTTTGTGTGAATGACAGATGGTTCCAGATATATTTTTTCGGAGTCACCTAGTGCAG”, the binding signal was 8120 fluorescence intensity (a.u.).

For the sequence “CGGATGGTCAAACGTTGGTCAAAAAGTCAACGGCGTCATACGGAGTCACCTAGTGCAG”, the binding signal is 19600 fluorescence intensity (a.u.).

Take “TCTCCTCTCTCTTCTCTTCTCTCTCTCCGATCCGGATCTTCGGAGTCACCTAGTGCAG”: the binding signal was 8550 fluorescence intensity (a.u.).

In the case of “TCCATTATCACGTGATTAATTAAGTATTAGCTATTTTTTTCGGAGTCACCTAGTGCAG”, the binding signal is 8220 fluorescence intensity (a.u.).

Consider “TCCGTGCTCGCGCTGCCTGCGGCTCGCCCTCACACCTACGCGGAGTCACCTAGTGCAG”, for which the binding signal was 8310 fluorescence intensity (a.u.).

For “ATTGCACCTACCTGACAAGTTTTTTTATCGGCAATGCAATCGGAGTCACCTAGTGCAG”, the binding signal is 8930 fluorescence intensity (a.u.).

With “GAGGCTGGGCTGGGCGGGCGTATCGTTCCTGCTCCCGGAGCGGAGTCACCTAGTGCAG”, the binding signal is 25400 fluorescence intensity (a.u.).

“CAGAGCGCGTAACCGCCGCCTCGGGCCATTTCTCACACAACGGAGTCACCTAGTGCAG”: the binding signal is 8540 fluorescence intensity (a.u.).

As to “GATCTCTCCACTGGGCCCACCTCGTCTCTCGTCATTCGCCCGGAGTCACCTAGTGCAG”, the binding signal was 12100 fluorescence intensity (a.u.).

As to “TTCTGGAATTAACAGCCACACCCTTCGCACATTTCTCTTTCGGAGTCACCTAGTGCAG”, the binding signal was 10600 fluorescence intensity (a.u.).

“CTGTCTCTCTCCGAAATATCATTTCGTTTTTTAATCATCTCGGAGTCACCTAGTGCAG”: the binding signal is 8700 fluorescence intensity (a.u.).

Consider “AACCCTAGCTAAAACCCTACGCTTCCGCCGCCGCGAGCGCCGGAGTCACCTAGTGCAG”, for which the binding signal was 8120 fluorescence intensity (a.u.).

With “GCTATCGCTAGACCGTTATTCCGCTGCTGTTTTCTTTTCTCGGAGTCACCTAGTGCAG”, the binding signal is 12100 fluorescence intensity (a.u.).

On to “GTTGTCGAGTATTTTCTGCTTATGTACGCCTCAAACCGACCGGAGTCACCTAGTGCAG”, for which the binding signal was 12600 fluorescence intensity (a.u.).

For “TCTCTTGTGCTTTCAGAATTTTTCTTGTGTGTTTTAGCCACGGAGTCACCTAGTGCAG”, the binding signal was 9170 fluorescence intensity (a.u.).

In the case of “TGCCATTTGTATGTATGTATTTCTCTCTGATAACCAAAGTCGGAGTCACCTAGTGCAG”, the binding signal was 9700 fluorescence intensity (a.u.).

“GATTCTACTGCCCCGTTGACTAATTGTCTTCGTCAGGATCCGGAGTCACCTAGTGCAG”: the binding signal was 17900 fluorescence intensity (a.u.).

For “ATTGTTCAGCTGTTTTTTTTTTGTGTGGGTTTCTAGATTTCGGAGTCACCTAGTGCAG”, the binding signal was 12200 fluorescence intensity (a.u.).

As to “CGAAGTATACTTTACCTTTTTCTTTTTAGGTCCTTTATATCGGAGTCACCTAGTGCAG”, the binding signal was 9260 fluorescence intensity (a.u.).

Regarding “AAAAATACCAGTCCAATCCAAACCCTTTTTTCTTTTTTTTCGGAGTCACCTAGTGCAG”, the binding signal is 9160 fluorescence intensity (a.u.).

Consider “CTATAAATATTTGGGTGGGGTTACTGAATTTTAAAGAACGCGGAGTCACCTAGTGCAG”, for which the binding signal is 13700 fluorescence intensity (a.u.).

For “CGCCCGCCGCTCGGCCGCGCCCATCTGCTCTCTGCCAGCCCGGAGTCACCTAGTGCAG”, the binding signal is 8550 fluorescence intensity (a.u.).

Consider “TGTCCTCACACCACCTCGTCCCTATCCATGATCGCGTCCCCGGAGTCACCTAGTGCAG”, for which the binding signal is 8090 fluorescence intensity (a.u.).

Take “TACGACTACTCACTTTTTTTCTCGACCACACATATATGTTCGGAGTCACCTAGTGCAG”: the binding signal is 10300 fluorescence intensity (a.u.).

As for “CCACCTCCACCTTGACCTCCTCCTTCTTCAGCCCCGGCACCGGAGTCACCTAGTGCAG”, the binding signal is 8600 fluorescence intensity (a.u.).

Consider “GCTCTGACGCACGTGACCTCTCTTTCTCCTCGAGCGCAGCCGGAGTCACCTAGTGCAG”, for which the binding signal was 10200 fluorescence intensity (a.u.).

Consider “CGTCGTCCCTATAATTGCTCGCCGCCATCGTTCCTGTTCGCGGAGTCACCTAGTGCAG”, for which the binding signal was 8580 fluorescence intensity (a.u.).

Take “GATCTTCGGCCGAGTTTAGTTCCAAACTTTTTCTTCAAACCGGAGTCACCTAGTGCAG”: the binding signal was 8660 fluorescence intensity (a.u.).

For “TCTACACCTCATTTTCCGCTTGCATCTTGCTCATTCAGATCGGAGTCACCTAGTGCAG”, the binding signal was 9920 fluorescence intensity (a.u.).

On to “GGAGCCGCCGCGGCCGTCCTCCTTCTTCCCCACCGCCGCGCGGAGTCACCTAGTGCAG”, for which the binding signal is 8740 fluorescence intensity (a.u.).

As to “ACTGCCCTTTTGCTATCAGTTTCTGGCAAGCACTTCATATCGGAGTCACCTAGTGCAG”, the binding signal is 10500 fluorescence intensity (a.u.).

For “CCCCGATCCCCACGACGCGCCGCCGCCCCGCACCGAGATGCGGAGTCACCTAGTGCAG”, the binding signal is 8840 fluorescence intensity (a.u.).

Take “TTAACCACCGCCGCGTCCCATTCCCAAGTCCCACCACCACCGGAGTCACCTAGTGCAG”: the binding signal is 9920 fluorescence intensity (a.u.).

For “CGCATATTTGATCTTTTCATGTTATACTGTGTAGTTTACACGGAGTCACCTAGTGCAG”, the binding signal was 12000 fluorescence intensity (a.u.).
